# Values joined by “and” are separate entries in the source; they are usually repeats but may differ in a detail not shown here. Equal entries are not always repeated. This continues a long series; more values of the same kind are listed elsewhere.
# System: MDA-MB-231 complex spheroid viability
# Experiment: Anticancer human tumor MDA-MB-231/ATCC cell line growth inhibition;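 further: drug exposure lasted 7 days starting on day 3 of spheroid growth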
# Conditions: active compounds read low
# Source text: Multicellular complex tumor spheroid response to LSD1 Inhibitor Iadademstat in combination with a variety of drugs and investigational agents in selected tumor cell lines
# The current study was undertaken to assess response to LSD1 inhibitors in combination with standard-of-care drugs and investigational agents in solid tumor complex spheroid models as well as in the K-562 leukemia. Complex spheroids include a stromal component modeled by human endothelial cells (HUVEC) and fibroblasts modeled by human mesenchymal stem cells (MSCs). The concentration ranges selected for each drug and investigational agent were based upon clinically achievable concentrations if the clinical Cmax of the agent was known.
# Compounds. The drugs and investigational agents used in this study are listed on Table 1. All of the agents used, including staurosporine (NSC755774) and gemcitabine (NSC613327), were obtained from the Developmental Therapeutics Program, NCI. FDA-approved anticancer drugs are available from the NCI at http://dtp.nci.nih.gov/branches/dscb/oncology_drugset_explanation.html. Drugs and investigational agents were >95% pure by proton nuclear magnetic resonance (NMR) and liquid chromatography/mass spectrometry (LC/MS). Stock solutions were prepared at 400x in DMSO, stored at -70 degrees C, and diluted in fresh medium prior to their use. The final concentration of DMSO in cell culture wells never exceeded 0.25% (v/v). The FDA-approved anticancer drug set is available from the Developmental Therapeutics Program at https://dtp.cancer.gov/organization/dscb/obtaining/available_plates.htm. All drugs and investigational agents were tested over a range starting from a high concentration at or near the clinical Cmax and decreasing in half-log increments. If the clinical Cmax for an agent had not been determined, the highest concentration tested was 10 microM.
# Cell Lines. […]
Structure (SMILES),"viability, T/C (compound 0.1 µM)","viability, T/C (compound 0.316 µM)","viability, T/C (compound 10 µM)"
NC1CC1c1ccc(-c2cccc(O)c2)cc1 (stereo not drawn),78.1% [middle of 25 runs],–,–
NC1CCC(NC2CC2c2ccccc2)CC1 (stereo not drawn),–,103% [middle of 18 runs],69.6% and 64.6%

# — PubChem BioAssay AID1918953 (Molecular Pharmacology Branch, DTP, NCI, 2023)
